Results on one substance are retold here after doi:10.1101/2020.10.13.337683.

Sequences of proteins named here, by UniProt entry; tags and fusion partners are left off.
UniProt P0A9A6: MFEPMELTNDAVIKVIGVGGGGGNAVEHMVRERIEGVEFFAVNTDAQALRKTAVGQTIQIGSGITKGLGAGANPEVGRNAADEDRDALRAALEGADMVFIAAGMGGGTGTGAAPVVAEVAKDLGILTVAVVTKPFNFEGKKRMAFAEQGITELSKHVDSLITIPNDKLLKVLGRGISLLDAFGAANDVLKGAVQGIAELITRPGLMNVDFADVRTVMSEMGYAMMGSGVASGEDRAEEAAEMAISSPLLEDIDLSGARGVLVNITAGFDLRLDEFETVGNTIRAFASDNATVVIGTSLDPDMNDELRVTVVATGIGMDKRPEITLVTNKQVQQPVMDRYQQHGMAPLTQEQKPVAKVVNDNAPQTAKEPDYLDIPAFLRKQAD

Results are given in words; binding and its absence hold for the method and conditions named. In cells and extracts the contact can be indirect. Some binding calls cover weakened binding; strength is not graded here. Sequences can lack the tags named with a protein.

For the experiment, the target named is T1, N-terminal GFP tagged MutS (E. coli) (UniProt P23909).
T1 sequence: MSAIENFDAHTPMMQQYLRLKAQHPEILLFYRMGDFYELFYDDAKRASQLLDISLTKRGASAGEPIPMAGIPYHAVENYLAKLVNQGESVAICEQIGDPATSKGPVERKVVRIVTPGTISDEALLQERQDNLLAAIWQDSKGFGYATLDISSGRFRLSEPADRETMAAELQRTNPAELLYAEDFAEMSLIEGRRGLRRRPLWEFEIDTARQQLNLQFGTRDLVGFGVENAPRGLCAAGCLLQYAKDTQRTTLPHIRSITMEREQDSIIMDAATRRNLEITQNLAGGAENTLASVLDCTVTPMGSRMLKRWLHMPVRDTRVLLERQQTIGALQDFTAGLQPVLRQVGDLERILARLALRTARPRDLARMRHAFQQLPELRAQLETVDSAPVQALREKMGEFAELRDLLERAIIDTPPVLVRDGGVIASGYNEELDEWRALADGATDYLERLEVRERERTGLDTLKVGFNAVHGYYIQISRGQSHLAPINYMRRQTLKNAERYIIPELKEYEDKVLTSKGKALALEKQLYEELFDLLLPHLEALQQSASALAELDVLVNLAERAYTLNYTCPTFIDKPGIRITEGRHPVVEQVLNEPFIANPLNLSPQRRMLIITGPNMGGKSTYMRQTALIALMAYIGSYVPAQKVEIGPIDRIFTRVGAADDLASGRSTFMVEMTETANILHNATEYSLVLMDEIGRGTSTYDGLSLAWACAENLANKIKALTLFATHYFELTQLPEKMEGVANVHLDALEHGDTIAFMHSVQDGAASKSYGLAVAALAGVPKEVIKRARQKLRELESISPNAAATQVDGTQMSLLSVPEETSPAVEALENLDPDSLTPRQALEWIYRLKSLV
Put plainly: co-IP.

Turning to FtsZ (from UniProt P0A9A6 1-383), the binding result was “binds”.
